Data from the supplement of paper PMC12067093, “Discovery and optimisation of a covalent ligand for TRIM25 and its application to targeted protein ubiquitination” (Chemical Science, 2025).
The other results are listed elsewhere or left out.

Compound: Cc1cc(ccc1-c1ccccc1)C(=O)N1CCCN(CC1)C(=O)CCl [compound 10]
Experiment: probe-labelled cysteine peptide fold change vs DMSO (competition) (log2 fold change); higher = less target engagement (more negative = stronger competition)
Conditions: THP-1, incubation time: 4 h
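Also: competitive profiling in live THP-1 cells: cysteine peptides tagged with an iodoacetamide desthiobiotin (IA-DTB) probe, intensity after compound treatment relative to DMSO-treated cells.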

| Target | probe-labelled cysteine peptide fold change (10 µM) | probe-labelled cysteine peptide fold change (50 µM) |
| --- | --- | --- |
| CTU2_Q2VPK5_457_REDPQACIEEQLCYSCR (UniProt Q2VPK5) | 0.0616 | -0.0015 |
| CUL9_Q8IWT3_2300_CTFHHQAR (UniProt Q8IWT3) | -0.13 | -0.333 |
| CWF19L1_Q69YN2_288_QILAPVEESACQFFFDLNEK (UniProt Q69YN2) | 0.257 | 0.122 |
| DCAF1_Q9Y4B6_69_ADPECMLGHLLR (UniProt Q9Y4B6) | -0.106 | -0.124 |
| DAZAP1_Q96EP5_63_DPNCVGTVLASRPHTLDGR (UniProt Q96EP5) | 0.117 | 0.131 |
| DALRD3_Q5D0E6_66_FDDGQVPEHLLHALACLQGPGVAPVLR (UniProt Q5D0E6) | 0.315 | -0.0543 |
| DCAF5_Q96JK2_349_FNPHTYMICSSGVEK (UniProt Q96JK2) | -0.167 | -0.0686 |
| CXXC1_Q9P0U4_181_TEDCGHCDFCR (UniProt Q9P0U4) | 0.297 | 0.538 |
| CXorf38_Q8TB03_12_LNCAEYK (UniProt Q8TB03) | -0.408 | -0.844 |
| CYFIP1_Q7L576_519_TVCDWETGHEPFNDPALRGEK (UniProt Q7L576) | -0.187 | 0.197 |
| DBR1_Q9UK59_8+9_VAVAGCCHGELDK (UniProt Q9UK59) | -0.255 | -0.677 |
| CTSV_O60911_323_NNHCGIATAASYPNV (UniProt O60911) | -0.122 | 0.2 |
| DAP3_P51398_356_EFESCIQYYLENNWLQHEK (UniProt P51398) | -0.143 | -0.0749 |
| DCAF6_Q58WW2_593_SCGVPEESASSEK (UniProt Q58WW2) | -0.0858 | -0.182 |
| CTSZ_Q9UBR2_164_DQECDK (UniProt Q9UBR2) | -0.0913 | -0.207 |
| DAXX_Q9UER7_338_HLDLIYNFGCHLTDDYRPGVDPALSDPVLAR (UniProt Q9UER7) | 0.00994 | 0.202 |
| DCAF10_Q5QP82_213_TLSEAHEDCVNNIR (UniProt Q5QP82) | -0.0454 | -0.222 |
| DBT_P11182_279_IPHFGYCDEIDLTELVK (UniProt P11182) | -0.0741 | 0.014 |
| DCAF13_Q9NV06_215_FNPIETFLLGSCASDR (UniProt Q9NV06) | 0.105 | -0.0461 |
| DAXX_Q9UER7_131_LYVYINELCTVLK (UniProt Q9UER7) | 0.106 | -0.0447 |
| CUL9_Q8IWT3_176_ETGALDLLMHMLCNPEPQIR (UniProt Q8IWT3) | 0.116 | -0.219 |
| CXXC1_Q9P0U4_420_IQQWQQSPCIAEEHGK (UniProt Q9P0U4) | 0.0146 | 0.158 |

| Target | probe-labelled cysteine peptide fold change (10 µM) | probe-labelled cysteine peptide fold change (50 µM) |
| --- | --- | --- |
| DAZAP1_Q96EP5_85_NIDPKPCTPR (UniProt Q96EP5) | 0.0293 | -0.209 |
| DBR1_Q9UK59_371_INPQTTEFCAQLGIIDINVR (UniProt Q9UK59) | -0.286 | -0.0445 |
| DCAF8_Q5TAQ9_483_GGVVNCLEPHPHLPVLATSGLDHDVK (UniProt Q5TAQ9) | -0.0812 | -0.0115 |
| DALRD3_Q5D0E6_314_HLICGPVK (UniProt Q5D0E6) | 0.197 | -0.389 |
| CTU1_Q7Z7A3_144_SCCTFCGVLR (UniProt Q7Z7A3) | -0.353 | -1.17 |
| DCTN1_Q14203_893_QSCNILISTMNK (UniProt Q14203) | 0.197 | -0.00944 |
| CYTH2_Q99418_322_KPNCFELYIPNNK (UniProt Q99418) | 0.0998 | 0.448 |
| CTSB_P07858_319_ILRGQDHCGIESEVVAGIPR (UniProt P07858) | 0.0097 | -0.33 |
| DBNL_Q9UJU6_97_GACASHVSTMASFLK (UniProt Q9UJU6) | -0.0693 | -0.135 |
| DCAF5_Q96JK2_812_ASGSTLNSGSGNCPR (UniProt Q96JK2) | -0.357 | -0.302 |
| DARS2_Q6PI48_590_LICLVTGSPSIRDVIAFPK (UniProt Q6PI48) | -0.247 | 0.252 |
| CTR9_Q6PD62_196_TNPGCPAEVR (UniProt Q6PD62) | -0.0165 | -0.0939 |
| CTR9_Q6PD62_363_ENASQCFEK (UniProt Q6PD62) | 0.0943 | 0.277 |
| DBR1_Q9UK59_139_GHFECPPYNSSTIR (UniProt Q9UK59) | 0.0872 | 0.148 |
| DDA1_Q9BW61_25_FHADSVCK (UniProt Q9BW61) | -0.0973 | -0.511 |
| DCAF11_Q8TEB1_460_FSPIHSTGQQFIYSGCSTGK (UniProt Q8TEB1) | 0.182 | 0.247 |
| CTSD_P07339_329_AIGAVPLIQGEYMIPCEK (UniProt P07339) | -0.427 | -0.317 |
| DCAF11_Q8TEB1_288_EVLGGANDGCLYVFDR (UniProt Q8TEB1) | 0.151 | 0.357 |
| DCAF12L1_Q5VU92_345_QDQQNIRPLCSR (UniProt Q5VU92) | 0.0518 | -0.273 |
| DCTN1_Q14203_830_MPGTDAPGIPAALAFGPQVSDTLLDCR (UniProt Q14203) | 0.345 | 0.472 |
| DCAF6_Q58WW2_766_HTAEHLMLLEADNHVVNCLQPHPFDPILASSGIDYDIK (UniProt Q58WW2) | 0.0173 | 0.185 |
| DCPS_Q96C86_37_EAGVGNGTCAPVRLPFSGFR (UniProt Q96C86) | -0.385 | -0.503 |

| Target | probe-labelled cysteine peptide fold change (10 µM) | probe-labelled cysteine peptide fold change (50 µM) |
| --- | --- | --- |
| CTSZ_Q9UBR2_214_MMAEIYANGPISCGIMATER (UniProt Q9UBR2) | -0.126 | -0.0828 |
| DARS2_Q6PI48_202_MREYLCNLHGFVDIETPTLFKR (UniProt Q6PI48) | -0.224 | -0.413 |
| CTSB_P07858_93_EQWPQCPTIK (UniProt P07858) | -0.21 | -0.235 |
| DARS2_Q6PI48_459_LECADLLETR (UniProt Q6PI48) | -0.0592 | 0.225 |
| CUL4A_Q13619_289_PLIACVEK (UniProt Q13619) | -0.0504 | -0.0116 |
| CYTH1_Q15438_323_EVEDSKKPNCFELYIPDNK (UniProt Q15438) | -0.0153 | -0.555 |
| DARS_P14868_130_IGSCTQQDVELHVQK (UniProt P14868) | -0.0128 | 0.0502 |
| DAG1_Q14118_713_ATSITVTGSGSCR (UniProt Q14118) | -0.158 | -0.346 |
| CTSB_P07858_108_DQGSCGSCWAFGAVEAISDR (UniProt P07858) | -0.139 | -0.322 |
| CUL4B_Q13620_292+297_CWQNHCR (UniProt Q13620) | -0.0771 | 0.145 |
| CUL4A_Q13619_94_YNLEELYQAVENLCSHK (UniProt Q13619) | -0.05 | 0.0488 |
| DCXR_Q7Z4W1_58_ECPGIEPVCVDLGDWEATER (UniProt Q7Z4W1) | 0.125 | 0.231 |
| DCTN1_Q14203_1252_VTFSCAAGFGQR (UniProt Q14203) | 0.0513 | 0.00499 |
| DCLRE1C_Q96SD1_359_VVEILKPLCR (UniProt Q96SD1) | -0.125 | -0.31 |
| DCUN1D1_Q96GG9_115_AATQCEFSK (UniProt Q96GG9) | 0.0985 | 0.11 |
| DACH1_Q9UI36_279_DFETLYNDCTNASSR (UniProt Q9UI36) | 0.0622 | 0.287 |
| DAZAP1_Q96EP5_63_FKDPNCVGTVLASR (UniProt Q96EP5) | 0.157 | -0.0582 |
| CXXC1_Q9P0U4_566_VPADEVCGCPLVR (UniProt Q9P0U4) | 0.0407 | 0.0191 |
| CWF19L1_Q69YN2_87_YFQDADGCELAENITYLGR (UniProt Q69YN2) | -0.174 | 0.0812 |
| DDAH2_O95865_11_CSHALIR (UniProt O95865) | 0.0326 | 0.0102 |
| DCAF12_Q5T6F0_380_LSACYGSK (UniProt Q5T6F0) | -0.161 | -0.717 |
| DCAF7_P61962_109_LECLLNNNK (UniProt P61962) | 0.161 | -0.0314 |

| Target | probe-labelled cysteine peptide fold change (10 µM) | probe-labelled cysteine peptide fold change (50 µM) |
| --- | --- | --- |
| DCUN1D4_Q92564_253_DQWCNVLEFSR (UniProt Q92564) | 0.0103 | 0.038 |
| DCXR_Q7Z4W1_150_AVTNHSVYCSTK (UniProt Q7Z4W1) | 0.187 | 0.105 |
| CTSA_P10619_240_LWSSLQTHCCSQNK (UniProt P10619) | 0.0306 | 0.215 |
| CTSB_P07858_105_EIRDQGSCGSCWAFGAVEAISDR (UniProt P07858) | -0.145 | -0.569 |
| DCTN3_O75935_140_LAQIHIQQQDQCVEITEESK (UniProt O75935) | -0.291 | -0.146 |
| DCTD_P32321_60_IVGIGYNGMPNGCSDDVLPWR (UniProt P32321) | 0.155 | -0.179 |
| CUL9_Q8IWT3_76_AEHILMWLSAPEVYANCPGLLGER (UniProt Q8IWT3) | 0.0237 | -0.0123 |
| CUL1_Q13616_149_ECDEGR (UniProt Q13616) | -0.00786 | 0.0945 |
| DCPS_Q96C86_222_WNQQQLDDLYLIAICHR (UniProt Q96C86) | 0.144 | 0.0953 |
| DCP2_Q8IU60_140_VNKEEAPHDCAAR (UniProt Q8IU60) | -0.144 | -0.323 |
| DDAH2_O95865_176_GLCGMGGPR (UniProt O95865) | -0.185 | -0.334 |
| DCAF1_Q9Y4B6_1070_YGGVDGGCFDR (UniProt Q9Y4B6) | 0.00316 | -0.239 |
| DCAF1_Q9Y4B6_1037_NPVATCPPFSLFTPHQCPEPK (UniProt Q9Y4B6) | 0.00178 | -0.0472 |
| CTSZ_Q9UBR2_179_ECHAIR (UniProt Q9UBR2) | 0.892 | 2.23 |
| CTTNBP2NL_Q9P2B4_312_GTATEPLMLMSVFCQTESFPAER (UniProt Q9P2B4) | 0.204 | 0.436 |
| DAZAP1_Q96EP5_39_SYFSQYGEVVDCVIMK (UniProt Q96EP5) | 0.257 | 0.0801 |
| DARS2_Q6PI48_152_TAELLNACK (UniProt Q6PI48) | 0.0756 | 0.133 |
| CTR9_Q6PD62_817_QCSDLLSQAQYHVAR (UniProt Q6PD62) | 0.3 | 0.441 |
| DBNL_Q9UJU6_97_KGACASHVSTMASFLK (UniProt Q9UJU6) | 0.0516 | -0.486 |
